The results in this text go back to PubChem BioAssay.

Shown are results outside the selection of hits, which stands elsewhere. Activity calls are given as the source filed them.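 How the source made its calls: active means fitted curve reaches a 35% signal fall AC35 below twice the sample's top valid tested dose (actives reach about 48 µM in these data); inactive means the rest, including activity in the rising direction.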

This assay in a line: DNA binders by acridine orange displacement, dose response, counter-screen for EWS/Fli inhibitor project, biochemical, fluorescence polarization, cherry-pick (AID 720586).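 Further: 0% = neutral control median and -100% = 10 µM mitoxantrone control median; lower polarization ratio signals compound binding to DNA.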 As to conditions: salmon sperm DNA acridine orange fluorescence polarization; at 68 µM (top of the series). A general note: Counterscreens check selectivity or assay interference.

As to `O=S(=O)(c1ccc2nc(SCc3cccc(Cl)c3)[nH]c2c1)N1CCOCC1`, the activity change, negative = DNA binding is inactive: -1.52%.
